Measured values: the supplement of paper PMC10849652
The list shows a part of the results.

The chains behind the UniProt entries cited, without tags or fusion partners. Where a name states a change or a piece, a line headed by the entry shows the natural chain unless it says otherwise.
UniProt Q86VV8: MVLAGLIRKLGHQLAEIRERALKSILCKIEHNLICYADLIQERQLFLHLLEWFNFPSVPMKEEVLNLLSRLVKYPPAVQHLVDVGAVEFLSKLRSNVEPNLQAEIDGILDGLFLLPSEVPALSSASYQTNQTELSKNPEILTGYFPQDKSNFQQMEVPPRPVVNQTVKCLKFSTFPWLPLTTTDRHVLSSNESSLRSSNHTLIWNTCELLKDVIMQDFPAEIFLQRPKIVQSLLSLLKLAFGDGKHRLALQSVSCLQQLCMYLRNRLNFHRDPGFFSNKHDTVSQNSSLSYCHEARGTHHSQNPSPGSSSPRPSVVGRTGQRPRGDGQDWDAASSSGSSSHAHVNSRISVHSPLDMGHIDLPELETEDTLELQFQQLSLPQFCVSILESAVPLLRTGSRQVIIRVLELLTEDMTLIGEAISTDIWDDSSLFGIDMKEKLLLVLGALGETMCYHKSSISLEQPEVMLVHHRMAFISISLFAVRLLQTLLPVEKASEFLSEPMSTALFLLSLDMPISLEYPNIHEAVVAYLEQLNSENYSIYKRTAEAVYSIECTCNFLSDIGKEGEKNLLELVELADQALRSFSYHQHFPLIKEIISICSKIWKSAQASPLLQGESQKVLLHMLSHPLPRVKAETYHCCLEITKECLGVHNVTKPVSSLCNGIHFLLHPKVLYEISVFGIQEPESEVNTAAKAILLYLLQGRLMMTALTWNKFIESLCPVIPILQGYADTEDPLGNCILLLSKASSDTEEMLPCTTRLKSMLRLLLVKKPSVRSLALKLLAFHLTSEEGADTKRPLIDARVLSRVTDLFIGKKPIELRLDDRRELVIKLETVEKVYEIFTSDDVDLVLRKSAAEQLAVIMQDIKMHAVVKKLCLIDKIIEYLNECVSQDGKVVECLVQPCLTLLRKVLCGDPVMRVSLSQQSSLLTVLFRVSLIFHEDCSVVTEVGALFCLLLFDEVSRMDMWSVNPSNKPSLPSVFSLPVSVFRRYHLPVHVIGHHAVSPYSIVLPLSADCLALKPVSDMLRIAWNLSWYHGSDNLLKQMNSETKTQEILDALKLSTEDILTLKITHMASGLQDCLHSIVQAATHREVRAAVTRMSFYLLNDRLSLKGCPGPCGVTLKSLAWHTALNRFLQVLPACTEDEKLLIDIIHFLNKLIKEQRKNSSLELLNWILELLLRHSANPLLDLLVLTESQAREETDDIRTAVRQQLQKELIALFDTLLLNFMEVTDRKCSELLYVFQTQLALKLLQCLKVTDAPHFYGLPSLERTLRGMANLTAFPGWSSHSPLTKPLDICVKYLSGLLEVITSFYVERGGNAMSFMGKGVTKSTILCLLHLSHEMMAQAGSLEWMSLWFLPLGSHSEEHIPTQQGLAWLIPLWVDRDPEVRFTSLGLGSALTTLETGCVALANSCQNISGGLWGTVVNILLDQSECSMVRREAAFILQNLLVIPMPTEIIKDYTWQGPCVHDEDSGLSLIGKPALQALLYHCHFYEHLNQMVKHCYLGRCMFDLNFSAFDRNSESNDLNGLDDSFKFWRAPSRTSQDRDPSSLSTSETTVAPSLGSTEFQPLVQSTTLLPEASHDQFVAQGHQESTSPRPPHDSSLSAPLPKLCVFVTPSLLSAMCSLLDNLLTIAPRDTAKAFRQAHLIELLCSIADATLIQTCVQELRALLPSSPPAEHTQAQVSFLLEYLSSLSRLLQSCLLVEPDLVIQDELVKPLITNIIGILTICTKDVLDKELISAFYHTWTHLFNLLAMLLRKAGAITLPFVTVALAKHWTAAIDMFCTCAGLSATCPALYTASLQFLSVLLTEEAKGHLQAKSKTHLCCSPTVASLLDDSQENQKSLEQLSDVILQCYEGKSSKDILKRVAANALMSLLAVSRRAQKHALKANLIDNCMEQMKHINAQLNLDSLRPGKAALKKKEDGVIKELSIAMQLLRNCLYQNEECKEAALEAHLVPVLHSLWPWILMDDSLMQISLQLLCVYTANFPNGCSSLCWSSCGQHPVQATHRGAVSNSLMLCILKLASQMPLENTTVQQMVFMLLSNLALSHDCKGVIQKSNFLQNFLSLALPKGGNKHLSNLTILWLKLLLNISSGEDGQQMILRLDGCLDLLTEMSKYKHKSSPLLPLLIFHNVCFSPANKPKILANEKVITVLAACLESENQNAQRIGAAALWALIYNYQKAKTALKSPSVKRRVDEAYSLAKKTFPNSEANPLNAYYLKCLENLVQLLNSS
UniProt O00442: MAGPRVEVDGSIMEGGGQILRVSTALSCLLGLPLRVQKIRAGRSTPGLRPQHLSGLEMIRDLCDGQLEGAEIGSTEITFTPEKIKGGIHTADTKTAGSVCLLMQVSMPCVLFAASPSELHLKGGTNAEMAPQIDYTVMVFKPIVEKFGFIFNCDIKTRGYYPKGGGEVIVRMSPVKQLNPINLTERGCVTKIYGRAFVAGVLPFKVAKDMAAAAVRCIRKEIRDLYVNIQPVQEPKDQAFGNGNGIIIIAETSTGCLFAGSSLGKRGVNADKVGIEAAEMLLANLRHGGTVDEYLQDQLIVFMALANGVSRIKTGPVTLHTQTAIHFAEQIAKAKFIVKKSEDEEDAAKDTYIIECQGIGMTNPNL
UniProt Q7L4I2: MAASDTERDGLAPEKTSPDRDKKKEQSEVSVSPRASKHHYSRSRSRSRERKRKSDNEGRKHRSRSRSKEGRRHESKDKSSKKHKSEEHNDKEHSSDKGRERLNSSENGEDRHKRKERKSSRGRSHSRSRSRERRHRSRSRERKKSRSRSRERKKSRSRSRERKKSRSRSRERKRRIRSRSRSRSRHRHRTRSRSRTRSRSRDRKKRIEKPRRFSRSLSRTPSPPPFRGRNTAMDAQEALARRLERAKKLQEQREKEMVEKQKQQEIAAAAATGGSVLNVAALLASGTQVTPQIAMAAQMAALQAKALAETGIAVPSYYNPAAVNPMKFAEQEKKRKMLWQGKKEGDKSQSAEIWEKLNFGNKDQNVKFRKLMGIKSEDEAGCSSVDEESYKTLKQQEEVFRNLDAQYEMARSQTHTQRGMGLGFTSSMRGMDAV
UniProt O95059: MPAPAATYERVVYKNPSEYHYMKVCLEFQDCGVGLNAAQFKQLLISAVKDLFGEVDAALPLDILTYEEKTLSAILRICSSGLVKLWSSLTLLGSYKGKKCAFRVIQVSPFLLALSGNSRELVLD
UniProt P78345: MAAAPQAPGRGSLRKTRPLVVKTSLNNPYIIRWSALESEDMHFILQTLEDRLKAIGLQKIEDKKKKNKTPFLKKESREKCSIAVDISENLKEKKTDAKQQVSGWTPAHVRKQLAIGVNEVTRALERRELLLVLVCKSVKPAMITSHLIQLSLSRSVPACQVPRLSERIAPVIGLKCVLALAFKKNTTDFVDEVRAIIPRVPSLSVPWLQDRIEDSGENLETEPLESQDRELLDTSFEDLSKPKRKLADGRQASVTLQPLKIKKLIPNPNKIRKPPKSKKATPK
UniProt Q8N5L8: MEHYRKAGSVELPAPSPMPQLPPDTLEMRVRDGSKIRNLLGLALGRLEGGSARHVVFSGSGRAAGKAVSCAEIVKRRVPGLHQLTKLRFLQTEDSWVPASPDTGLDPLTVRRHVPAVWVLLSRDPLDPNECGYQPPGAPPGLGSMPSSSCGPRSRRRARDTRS
UniProt Q96T23: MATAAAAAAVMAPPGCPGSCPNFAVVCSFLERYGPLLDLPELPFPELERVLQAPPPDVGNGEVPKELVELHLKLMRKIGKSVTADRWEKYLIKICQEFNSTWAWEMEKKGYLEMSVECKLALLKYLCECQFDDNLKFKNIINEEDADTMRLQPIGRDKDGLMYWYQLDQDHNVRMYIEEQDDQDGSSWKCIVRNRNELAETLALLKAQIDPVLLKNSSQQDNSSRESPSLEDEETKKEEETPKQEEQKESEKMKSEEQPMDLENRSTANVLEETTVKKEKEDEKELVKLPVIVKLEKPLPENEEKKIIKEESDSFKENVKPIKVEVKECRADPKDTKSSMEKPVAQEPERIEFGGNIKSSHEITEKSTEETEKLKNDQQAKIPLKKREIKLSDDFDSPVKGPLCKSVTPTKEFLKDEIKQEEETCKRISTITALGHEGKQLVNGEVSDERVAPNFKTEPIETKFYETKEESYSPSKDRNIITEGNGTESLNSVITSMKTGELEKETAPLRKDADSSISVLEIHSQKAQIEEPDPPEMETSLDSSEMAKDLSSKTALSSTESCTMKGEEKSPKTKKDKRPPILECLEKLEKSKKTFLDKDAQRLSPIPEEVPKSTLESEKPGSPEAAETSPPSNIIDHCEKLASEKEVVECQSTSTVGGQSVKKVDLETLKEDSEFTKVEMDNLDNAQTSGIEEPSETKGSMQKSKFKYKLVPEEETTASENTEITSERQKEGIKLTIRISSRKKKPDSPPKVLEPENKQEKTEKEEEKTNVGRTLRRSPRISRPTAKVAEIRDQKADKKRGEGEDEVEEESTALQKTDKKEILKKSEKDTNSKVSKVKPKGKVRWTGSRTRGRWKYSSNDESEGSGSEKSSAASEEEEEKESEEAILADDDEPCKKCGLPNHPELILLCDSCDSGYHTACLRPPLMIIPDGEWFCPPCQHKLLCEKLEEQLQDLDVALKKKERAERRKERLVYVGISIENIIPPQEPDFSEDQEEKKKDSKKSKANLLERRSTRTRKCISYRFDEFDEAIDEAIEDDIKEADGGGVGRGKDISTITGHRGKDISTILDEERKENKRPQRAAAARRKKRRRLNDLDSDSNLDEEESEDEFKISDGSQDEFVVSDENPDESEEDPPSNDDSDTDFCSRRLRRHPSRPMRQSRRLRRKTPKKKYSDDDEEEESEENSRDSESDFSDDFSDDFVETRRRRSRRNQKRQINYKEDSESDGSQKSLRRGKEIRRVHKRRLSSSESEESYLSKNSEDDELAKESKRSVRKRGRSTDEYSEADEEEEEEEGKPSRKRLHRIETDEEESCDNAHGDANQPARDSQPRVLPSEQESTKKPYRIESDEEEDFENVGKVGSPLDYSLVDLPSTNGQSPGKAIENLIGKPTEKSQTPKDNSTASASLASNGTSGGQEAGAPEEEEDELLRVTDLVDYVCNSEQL
UniProt Q9HCY8: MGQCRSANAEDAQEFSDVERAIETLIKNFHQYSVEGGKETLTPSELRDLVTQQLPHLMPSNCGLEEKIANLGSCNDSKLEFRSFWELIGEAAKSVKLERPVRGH
UniProt P51812, whole entry, looked up: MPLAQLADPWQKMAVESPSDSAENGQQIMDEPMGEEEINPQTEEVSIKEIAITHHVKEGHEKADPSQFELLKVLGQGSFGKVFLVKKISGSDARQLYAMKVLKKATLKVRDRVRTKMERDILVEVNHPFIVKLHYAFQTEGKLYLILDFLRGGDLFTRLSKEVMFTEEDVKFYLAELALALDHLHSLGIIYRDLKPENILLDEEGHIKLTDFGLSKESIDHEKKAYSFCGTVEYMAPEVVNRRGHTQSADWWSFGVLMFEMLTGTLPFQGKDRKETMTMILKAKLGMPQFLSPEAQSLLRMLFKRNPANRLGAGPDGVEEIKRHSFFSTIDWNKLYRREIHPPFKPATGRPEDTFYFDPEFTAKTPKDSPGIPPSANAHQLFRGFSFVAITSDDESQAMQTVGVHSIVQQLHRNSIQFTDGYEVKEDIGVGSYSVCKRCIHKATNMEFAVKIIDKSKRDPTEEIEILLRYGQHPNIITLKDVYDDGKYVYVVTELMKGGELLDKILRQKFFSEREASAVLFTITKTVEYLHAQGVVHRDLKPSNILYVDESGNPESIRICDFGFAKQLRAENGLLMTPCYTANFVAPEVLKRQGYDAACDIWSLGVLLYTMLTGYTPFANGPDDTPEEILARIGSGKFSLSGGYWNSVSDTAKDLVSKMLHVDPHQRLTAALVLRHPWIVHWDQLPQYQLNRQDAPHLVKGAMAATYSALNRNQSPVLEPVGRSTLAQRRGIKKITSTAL
UniProt P04844: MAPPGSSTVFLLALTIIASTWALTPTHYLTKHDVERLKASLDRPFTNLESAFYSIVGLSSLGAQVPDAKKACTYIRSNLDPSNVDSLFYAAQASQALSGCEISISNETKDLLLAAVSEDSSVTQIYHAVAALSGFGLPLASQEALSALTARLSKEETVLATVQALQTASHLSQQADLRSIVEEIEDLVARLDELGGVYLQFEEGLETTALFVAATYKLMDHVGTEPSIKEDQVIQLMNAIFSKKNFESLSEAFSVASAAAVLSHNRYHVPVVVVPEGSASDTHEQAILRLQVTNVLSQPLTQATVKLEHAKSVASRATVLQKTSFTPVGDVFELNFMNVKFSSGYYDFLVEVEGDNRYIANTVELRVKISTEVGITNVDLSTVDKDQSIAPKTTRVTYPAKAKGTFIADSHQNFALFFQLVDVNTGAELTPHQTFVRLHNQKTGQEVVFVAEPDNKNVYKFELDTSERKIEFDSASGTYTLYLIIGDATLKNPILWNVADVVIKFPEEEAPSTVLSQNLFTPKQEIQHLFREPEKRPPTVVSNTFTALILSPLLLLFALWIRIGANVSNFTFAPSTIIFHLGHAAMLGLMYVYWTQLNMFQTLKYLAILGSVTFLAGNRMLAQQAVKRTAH

Compound: CC(C)(O)CC(=O)NCCn1ccc2ncnc(Nc3ccc(Oc4cccc(C(F)(F)F)c4)c(Cl)c3)c21
Test: log2 fold change, soluble protein after heating vs DMSO (PISA); higher = thermal stabilisation; K562 lysate, 10 uM; active = over 0.2 and 3.5 SD of the protein, either way, in both replicates (recomputed)
How it was run: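 To prepare the extract, K562 pellets were dounce-homogenised in PBS pH 7.4 with 1 mM MgCl2, giving crude material at 1 mg/mL protein. This was treated with 10 μM compound for 30 min, then heated in aliquots for 3 min over 48°C-58°C before pooling and addition of NP-40 to 0.5% at 4°C. Centrifugation at 21,000xg for 90 min left soluble protein in the supernatant, which TMTpro 16plex LC-MS/MS quantified with equalised channel sums. Results are log-two fold changes in thermal stability compared with solvent controls, from duplicates.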

log2 fold change, inactive:
RPS27L (UniProt Q71UM5) 0.011
RTTN (UniProt Q86VV8) -0.137
S100A11 (UniProt P31949) -0.017
RTCA (UniProt O00442) -0.04
S100A2 (UniProt P29034) -0.537
RSRC2 (UniProt Q7L4I2) -0.003
RYR1 (UniProt P21817) -0.012
RSAD1 (UniProt Q9HA92) -0.12
RPP14 (UniProt O95059) -0.016
RPS26 (UniProt P62854) -0.052
RPP38 (UniProt P78345) -0.033
RPUSD4 (UniProt Q96CM3) -0.036
RWDD2B (UniProt P57060) 0
RREB1 isoform 2 (UniProt Q92766) -0.061
RPP25L (UniProt Q8N5L8) -0.023
RSF1 (UniProt Q96T23) -0.043
S100A14 (UniProt Q9HCY8) 0.548
RPS6KA3 (UniProt P51812) -0.032
RSBN1L (UniProt Q6PCB5) -0.02
RPN2 (UniProt P04844) -0.035
RPS2 (UniProt P15880) -0.018
RPS3A (UniProt P61247) 0.032
RRP7A (UniProt Q9Y3A4) -0.055

2 entries picked at random from the list so far, as already listed:
log2 fold change, inactive:
RSBN1L (UniProt Q6PCB5) -0.02
RPUSD4 (UniProt Q96CM3) -0.036
